From a melanoma drug combination screen (doi:10.1371/journal.pone.0140310); values rounded.

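The test systems are human melanoma cell lines, treated with two drugs together for 72 h and then stained and imaged. The read-out is cell count (nuclei) in % of the DMSO control; lower values mean stronger growth inhibition or killing. Every drug was used at one fixed concentration, the lower of two screened (a fifth of the higher). No replicate spread is given; individual values may be noisy.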
Only some of the drugs and lines screened are listed, without regard to their results.

Drugs:
ZM336372: Cc1ccc(NC(=O)c2cccc(N(C)C)c2)cc1NC(=O)c1ccc(O)cc1 at 2 µM
docetaxel: CC(=O)O[C@@]12CO[C@@H]1C[C@H](O)[C@@]1(C)C(=O)[C@H](O)C3=C(C)[C@@H](OC(=O)[C@H](O)[C@@H](NC(=O)OC(C)(C)C)c4ccccc4)C[C@@](O)([C@@H](OC(=O)c4ccccc4)[C@H]21)C3(C)C at 0.0001 µM
OSI-906: C[C@]1(O)C[C@@H](c2nc(-c3ccc4ccc(-c5ccccc5)nc4c3)c3c(N)nccn32)C1 at 0.4 µM
nutlin-3: COc1ccc(C2=N[C@@H](c3ccc(Cl)cc3)[C@@H](c3ccc(Cl)cc3)N2C(=O)N2CCNC(=O)C2)c(OC(C)C)c1 at 0.1 µM
lestaurtinib: C[C@]12O[C@H](C[C@]1(O)CO)n1c3ccccc3c3c4c(c5c6ccccc6n2c5c31)CNC4=O at 0.004 µM
NVP-BEZ235: Cn1c(=O)n(-c2ccc(C(C)(C)C#N)cc2)c2c3cc(-c4cnc5ccccc5c4)ccc3ncc21 at 0.004 µM
XAV939: Oc1nc(-c2ccc(C(F)(F)F)cc2)nc2c1CSCC2 at 2 µM
darinaparsin: C[As](C)SC[C@H](NC(=O)CC[C@H](N)C(=O)O)C(=O)NCC(=O)O at 0.4 µM
lenalidomide: Nc1cccc2c1CN(C1CCC(=O)NC1=O)C2=O (stereo not drawn) at 1 µM
VX-702: NC(=O)c1ccc(N(C(N)=O)c2c(F)cccc2F)nc1-c1ccc(F)cc1F at 0.4 µM
stibogluconate: O=C(O)[C@@H]1[O][Sb](=[O])([O][Sb]2(=[O])[O][C@H]([C@H](O)CO)[C@H](O)[C@H](C(=O)O)[O]2)[O][C@H]([C@H](O)CO)[C@@H]1O (stereo partly drawn) at 2 µM
KU-0063794: COc1ccc(-c2ccc3c(N4CCOCC4)nc(N4C[C@@H](C)O[C@@H](C)C4)nc3n2)cc1CO at 0.02 µM
perifosine: CCCCCCCCCCCCCCCCCCOP(=O)([O-])OC1CC[N+](C)(C)CC1 at 0.4 µM
TCS401: O=C(O)C(=O)Nc1sc2c(c1C(=O)O)CCNC2 at 1.67 µM
BI-D1870: CC(C)CCN1c2nc(Nc3cc(F)c(O)c(F)c3)ncc2N(C)C(=O)C1C (stereo not drawn) at 0.2 µM
PLX4720: CCCS(=O)(=O)Nc1ccc(F)c(C(=O)c2c[nH]c3ncc(Cl)cc23)c1F at 0.08 µM
fludarabine: Nc1nc(F)nc2c1ncn2[C@@H]1O[C@H](CO)[C@@H](O)[C@@H]1O at 0.2 µM
GSK0660: COC(=O)c1sccc1S(=O)(=O)Nc1ccc(Nc2ccccc2)cc1OC at 1 µM
enzastaurin: Cn1cc(C2=C(c3cn(C4CCN(Cc5ccccn5)CC4)c4ccccc34)C(=O)NC2=O)c2ccccc21 at 0.8 µM
FK866: O=C(/C=C/c1cccnc1)NCCCCC1CCN(C(=O)c2ccccc2)CC1 at 0.01 µM
SU6656: CN(C)S(=O)(=O)c1ccc2c(c1)/C(=C/c1cc3c([nH]1)CCCC3)C(=O)N2 at 0.4 µM

| Combination | G-361 | COLO 792 | COLO 800 |
|---|---|---|---|
| perifosine + VX-702 | 87.4 | 99.5 | 73.9 |
| lenalidomide + OSI-906 | 73.8 | 99.9 | 50.7 |
| ZM336372 + BI-D1870 | 91.9 | 91.5 | 101 |
| darinaparsin + TCS401 | 103 | 100 | 104 |
| NVP-BEZ235 + GSK0660 | 90.4 | 95.1 | 89.1 |
| PLX4720 + FK866 | 9.6 | 54.7 | 24.3 |
| SU6656 + XAV939 | 70.9 | 68.5 | 83.3 |
| nutlin-3 + lestaurtinib | 91.1 | 88.6 | 100 |
| lestaurtinib + VX-702 | 91.7 | 89.5 | 95.6 |
| GSK0660 + docetaxel | 25.2 | 31.3 | 29.6 |
| fludarabine + perifosine | 67.8 | 89.1 | 85.6 |
| stibogluconate + enzastaurin | 92.7 | 87.1 | 92.0 |
| SU6656 + KU-0063794 | 74.4 | 82.8 | 67.2 |

The first 2 entries again:

Combination	G-361	COLO 792	COLO 800
perifosine + VX-702	87.4	99.5	73.9
lenalidomide + OSI-906	73.8	99.9	50.7